Results taken from publication PMC6393520.
These are yes or no findings as the source states them, for the method shown. In cells and extracts the contact can be indirect. These calls come from enrichment with a bait or labelling near it, and not all partners need be listed. Sequences can lack the tags named with a protein.

Target: T1, FLAG-ISL1 (Insulin gene enhancer binding protein 1) (UniProt P61371)
T1 sequence: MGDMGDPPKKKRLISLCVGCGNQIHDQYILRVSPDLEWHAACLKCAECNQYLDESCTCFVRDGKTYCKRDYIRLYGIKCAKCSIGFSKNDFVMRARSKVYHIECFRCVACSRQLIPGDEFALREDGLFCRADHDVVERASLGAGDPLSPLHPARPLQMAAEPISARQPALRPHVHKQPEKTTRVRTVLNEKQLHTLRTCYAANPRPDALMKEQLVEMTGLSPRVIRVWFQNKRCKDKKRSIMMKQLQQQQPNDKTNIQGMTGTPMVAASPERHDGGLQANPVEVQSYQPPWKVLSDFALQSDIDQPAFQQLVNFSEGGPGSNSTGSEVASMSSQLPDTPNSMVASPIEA
Experiment: affinity purification with mass spectrometry; lysate of HEK 293FT cells transfected with pcDNA3.0-FLAG-ISL1 (48 h) applied to ANTI-FLAG M2 Affinity Gel, washed, eluted with FLAG peptides, LC-MS/MS

binding: binds
B1: SETD7 (protein, UniProt Q8WTS6 1-366)
chain: MDSDDEMVEEAVEGHLDDDGLPHGFCTVTYSSTDRFEGNFVHGEKNGRGKFFFFDGSTLEGYYVDDALQGQGVYTYEDGGVLQGTYVDGELNGPAQEYDTDGRLIFKGQYKDNIRHGVCWIYYPDGGSLVGEVNEDGEMTGEKIAYVYPDERTALYGKFIDGEMIEGKLATLMSTEEGRPHFELMPGNSVYHFDKSTSSCISTNALLPDPYESERVYVAESLISSAGEGLFSKVAVGPNTVMSFYNGVRITHQEVDSRDWALNGNTLSLDEETVIDVPEPYNHVSKYCASLGHKANHSFTPNCIYDMFVHPRFGPIKCIRTLRAVEADEELTVAYGYDHSPPGKSGPEAPEWYQVELKAFQATQQK
